Reference: the supplement of paper PMC12067093, “Discovery and optimisation of a covalent ligand for TRIM25 and its application to targeted protein ubiquitination” (Chemical Science, 2025)
The list shows a part of the results.

Protein sequences, listed by entry. Tags and fused reporters are not part of them. Lines headed by an entry give the natural chain unless they say otherwise; changes in a name come on top.
UniProt O75131: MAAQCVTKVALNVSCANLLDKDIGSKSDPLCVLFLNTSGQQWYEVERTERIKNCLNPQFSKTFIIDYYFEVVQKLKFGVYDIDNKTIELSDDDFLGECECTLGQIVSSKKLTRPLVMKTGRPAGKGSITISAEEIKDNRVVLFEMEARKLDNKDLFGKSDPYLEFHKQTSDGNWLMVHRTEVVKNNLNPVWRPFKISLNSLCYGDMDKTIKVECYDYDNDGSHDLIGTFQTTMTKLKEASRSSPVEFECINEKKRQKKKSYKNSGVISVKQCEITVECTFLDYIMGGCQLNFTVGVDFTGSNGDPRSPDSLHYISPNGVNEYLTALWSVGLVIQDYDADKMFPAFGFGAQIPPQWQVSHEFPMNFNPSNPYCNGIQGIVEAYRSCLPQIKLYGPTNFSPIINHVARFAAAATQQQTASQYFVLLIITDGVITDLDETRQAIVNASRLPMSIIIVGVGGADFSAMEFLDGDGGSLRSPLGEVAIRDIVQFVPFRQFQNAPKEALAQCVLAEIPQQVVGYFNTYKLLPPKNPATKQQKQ
UniProt Q9UKF6: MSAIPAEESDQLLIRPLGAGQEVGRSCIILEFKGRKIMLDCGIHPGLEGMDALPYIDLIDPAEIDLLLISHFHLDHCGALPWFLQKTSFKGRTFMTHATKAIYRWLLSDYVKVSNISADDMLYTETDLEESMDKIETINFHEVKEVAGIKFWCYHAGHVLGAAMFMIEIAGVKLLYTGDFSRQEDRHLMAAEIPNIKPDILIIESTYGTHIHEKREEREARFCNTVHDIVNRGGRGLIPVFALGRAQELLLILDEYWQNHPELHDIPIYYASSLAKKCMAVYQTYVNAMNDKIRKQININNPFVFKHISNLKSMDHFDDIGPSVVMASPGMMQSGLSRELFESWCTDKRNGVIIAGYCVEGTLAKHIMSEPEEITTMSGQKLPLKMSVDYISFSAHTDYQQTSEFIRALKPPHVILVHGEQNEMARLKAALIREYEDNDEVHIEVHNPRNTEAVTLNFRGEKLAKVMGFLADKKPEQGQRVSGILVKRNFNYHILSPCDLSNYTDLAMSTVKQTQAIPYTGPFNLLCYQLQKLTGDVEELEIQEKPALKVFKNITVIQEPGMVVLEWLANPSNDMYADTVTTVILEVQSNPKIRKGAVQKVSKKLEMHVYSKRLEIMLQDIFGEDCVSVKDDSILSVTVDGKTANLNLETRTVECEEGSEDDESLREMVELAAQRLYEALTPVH
UniProt O75534: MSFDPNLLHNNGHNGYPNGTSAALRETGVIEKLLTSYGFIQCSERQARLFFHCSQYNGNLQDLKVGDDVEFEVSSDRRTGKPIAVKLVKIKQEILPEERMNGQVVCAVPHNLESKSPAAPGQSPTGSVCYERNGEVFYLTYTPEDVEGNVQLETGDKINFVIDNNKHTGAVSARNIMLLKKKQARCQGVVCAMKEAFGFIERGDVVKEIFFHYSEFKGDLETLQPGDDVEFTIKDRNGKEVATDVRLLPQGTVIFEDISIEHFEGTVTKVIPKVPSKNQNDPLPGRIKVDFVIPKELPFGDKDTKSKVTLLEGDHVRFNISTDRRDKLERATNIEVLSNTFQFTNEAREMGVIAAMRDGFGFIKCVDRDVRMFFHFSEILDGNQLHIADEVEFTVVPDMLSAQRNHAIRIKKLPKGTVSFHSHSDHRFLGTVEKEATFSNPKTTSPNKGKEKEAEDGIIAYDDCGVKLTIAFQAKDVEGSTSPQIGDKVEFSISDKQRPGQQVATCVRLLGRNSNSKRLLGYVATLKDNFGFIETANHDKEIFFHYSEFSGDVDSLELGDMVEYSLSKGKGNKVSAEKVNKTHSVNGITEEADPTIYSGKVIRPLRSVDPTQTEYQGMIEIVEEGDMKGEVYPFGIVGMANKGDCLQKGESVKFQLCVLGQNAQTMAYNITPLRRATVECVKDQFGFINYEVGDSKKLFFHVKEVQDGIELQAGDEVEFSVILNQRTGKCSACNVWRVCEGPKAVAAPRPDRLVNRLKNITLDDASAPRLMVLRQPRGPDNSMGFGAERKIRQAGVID
UniProt P50416: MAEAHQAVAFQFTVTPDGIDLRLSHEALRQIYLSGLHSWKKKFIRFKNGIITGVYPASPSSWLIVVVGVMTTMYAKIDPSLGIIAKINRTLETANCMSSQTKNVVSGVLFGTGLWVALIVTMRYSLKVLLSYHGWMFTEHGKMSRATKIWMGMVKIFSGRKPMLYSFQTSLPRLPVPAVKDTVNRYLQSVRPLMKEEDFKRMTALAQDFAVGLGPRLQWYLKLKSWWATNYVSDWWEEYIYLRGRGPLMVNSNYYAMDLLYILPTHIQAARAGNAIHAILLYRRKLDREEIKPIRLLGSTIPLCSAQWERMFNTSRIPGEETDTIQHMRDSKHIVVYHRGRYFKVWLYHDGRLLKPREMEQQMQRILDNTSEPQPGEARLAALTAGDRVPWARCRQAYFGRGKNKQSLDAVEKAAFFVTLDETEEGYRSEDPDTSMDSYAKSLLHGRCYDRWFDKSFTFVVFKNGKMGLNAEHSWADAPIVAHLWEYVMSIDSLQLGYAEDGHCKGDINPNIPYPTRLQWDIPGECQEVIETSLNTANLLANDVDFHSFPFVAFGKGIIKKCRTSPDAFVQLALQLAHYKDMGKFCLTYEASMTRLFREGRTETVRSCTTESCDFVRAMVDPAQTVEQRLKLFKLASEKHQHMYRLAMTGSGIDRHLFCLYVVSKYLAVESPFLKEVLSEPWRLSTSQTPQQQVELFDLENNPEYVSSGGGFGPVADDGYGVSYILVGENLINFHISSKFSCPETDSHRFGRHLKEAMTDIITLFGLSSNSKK
UniProt Q9BR76, whole entry, looked up: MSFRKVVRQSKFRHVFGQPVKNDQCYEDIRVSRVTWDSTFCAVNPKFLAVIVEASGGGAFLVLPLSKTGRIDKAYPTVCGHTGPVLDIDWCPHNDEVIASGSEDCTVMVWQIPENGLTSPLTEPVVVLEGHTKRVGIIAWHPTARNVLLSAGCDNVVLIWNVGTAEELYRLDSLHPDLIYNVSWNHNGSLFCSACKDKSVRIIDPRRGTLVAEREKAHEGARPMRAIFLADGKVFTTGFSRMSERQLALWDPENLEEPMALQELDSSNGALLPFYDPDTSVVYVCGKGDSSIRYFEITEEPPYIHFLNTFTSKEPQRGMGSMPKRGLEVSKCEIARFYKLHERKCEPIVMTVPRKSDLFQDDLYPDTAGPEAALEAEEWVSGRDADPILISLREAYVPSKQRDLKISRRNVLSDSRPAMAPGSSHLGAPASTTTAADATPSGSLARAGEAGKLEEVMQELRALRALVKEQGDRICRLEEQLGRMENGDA
UniProt Q9BRF8, whole entry, looked up: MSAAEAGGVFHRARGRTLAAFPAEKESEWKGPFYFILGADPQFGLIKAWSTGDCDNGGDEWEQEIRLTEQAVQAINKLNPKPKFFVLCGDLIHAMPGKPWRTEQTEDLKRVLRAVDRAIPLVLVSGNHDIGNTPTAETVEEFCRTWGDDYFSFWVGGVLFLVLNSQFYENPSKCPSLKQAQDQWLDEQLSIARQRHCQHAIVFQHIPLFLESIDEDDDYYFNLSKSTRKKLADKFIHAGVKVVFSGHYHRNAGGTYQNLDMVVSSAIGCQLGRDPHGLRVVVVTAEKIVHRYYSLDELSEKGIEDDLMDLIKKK
UniProt P35222, whole entry, looked up: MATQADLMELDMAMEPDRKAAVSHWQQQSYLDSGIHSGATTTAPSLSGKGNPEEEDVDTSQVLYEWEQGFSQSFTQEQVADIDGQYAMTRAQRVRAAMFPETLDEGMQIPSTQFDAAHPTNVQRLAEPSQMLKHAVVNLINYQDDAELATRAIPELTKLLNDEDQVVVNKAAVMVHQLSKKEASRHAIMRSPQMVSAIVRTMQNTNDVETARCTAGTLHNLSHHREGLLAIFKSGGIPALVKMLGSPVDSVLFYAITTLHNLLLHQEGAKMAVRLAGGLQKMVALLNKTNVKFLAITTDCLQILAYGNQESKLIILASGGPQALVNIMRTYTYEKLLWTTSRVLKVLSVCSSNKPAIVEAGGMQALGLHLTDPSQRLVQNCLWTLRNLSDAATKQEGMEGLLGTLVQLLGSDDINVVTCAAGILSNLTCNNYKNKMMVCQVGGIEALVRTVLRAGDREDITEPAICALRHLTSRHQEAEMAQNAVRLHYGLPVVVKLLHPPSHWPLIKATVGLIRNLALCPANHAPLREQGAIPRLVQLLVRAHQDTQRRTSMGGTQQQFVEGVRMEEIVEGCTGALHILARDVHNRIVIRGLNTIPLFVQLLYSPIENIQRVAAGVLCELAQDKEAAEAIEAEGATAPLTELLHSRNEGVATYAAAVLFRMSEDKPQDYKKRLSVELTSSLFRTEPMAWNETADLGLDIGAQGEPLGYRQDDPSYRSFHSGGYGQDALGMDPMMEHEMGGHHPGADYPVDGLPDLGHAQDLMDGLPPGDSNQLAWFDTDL
UniProt Q9Y4K1: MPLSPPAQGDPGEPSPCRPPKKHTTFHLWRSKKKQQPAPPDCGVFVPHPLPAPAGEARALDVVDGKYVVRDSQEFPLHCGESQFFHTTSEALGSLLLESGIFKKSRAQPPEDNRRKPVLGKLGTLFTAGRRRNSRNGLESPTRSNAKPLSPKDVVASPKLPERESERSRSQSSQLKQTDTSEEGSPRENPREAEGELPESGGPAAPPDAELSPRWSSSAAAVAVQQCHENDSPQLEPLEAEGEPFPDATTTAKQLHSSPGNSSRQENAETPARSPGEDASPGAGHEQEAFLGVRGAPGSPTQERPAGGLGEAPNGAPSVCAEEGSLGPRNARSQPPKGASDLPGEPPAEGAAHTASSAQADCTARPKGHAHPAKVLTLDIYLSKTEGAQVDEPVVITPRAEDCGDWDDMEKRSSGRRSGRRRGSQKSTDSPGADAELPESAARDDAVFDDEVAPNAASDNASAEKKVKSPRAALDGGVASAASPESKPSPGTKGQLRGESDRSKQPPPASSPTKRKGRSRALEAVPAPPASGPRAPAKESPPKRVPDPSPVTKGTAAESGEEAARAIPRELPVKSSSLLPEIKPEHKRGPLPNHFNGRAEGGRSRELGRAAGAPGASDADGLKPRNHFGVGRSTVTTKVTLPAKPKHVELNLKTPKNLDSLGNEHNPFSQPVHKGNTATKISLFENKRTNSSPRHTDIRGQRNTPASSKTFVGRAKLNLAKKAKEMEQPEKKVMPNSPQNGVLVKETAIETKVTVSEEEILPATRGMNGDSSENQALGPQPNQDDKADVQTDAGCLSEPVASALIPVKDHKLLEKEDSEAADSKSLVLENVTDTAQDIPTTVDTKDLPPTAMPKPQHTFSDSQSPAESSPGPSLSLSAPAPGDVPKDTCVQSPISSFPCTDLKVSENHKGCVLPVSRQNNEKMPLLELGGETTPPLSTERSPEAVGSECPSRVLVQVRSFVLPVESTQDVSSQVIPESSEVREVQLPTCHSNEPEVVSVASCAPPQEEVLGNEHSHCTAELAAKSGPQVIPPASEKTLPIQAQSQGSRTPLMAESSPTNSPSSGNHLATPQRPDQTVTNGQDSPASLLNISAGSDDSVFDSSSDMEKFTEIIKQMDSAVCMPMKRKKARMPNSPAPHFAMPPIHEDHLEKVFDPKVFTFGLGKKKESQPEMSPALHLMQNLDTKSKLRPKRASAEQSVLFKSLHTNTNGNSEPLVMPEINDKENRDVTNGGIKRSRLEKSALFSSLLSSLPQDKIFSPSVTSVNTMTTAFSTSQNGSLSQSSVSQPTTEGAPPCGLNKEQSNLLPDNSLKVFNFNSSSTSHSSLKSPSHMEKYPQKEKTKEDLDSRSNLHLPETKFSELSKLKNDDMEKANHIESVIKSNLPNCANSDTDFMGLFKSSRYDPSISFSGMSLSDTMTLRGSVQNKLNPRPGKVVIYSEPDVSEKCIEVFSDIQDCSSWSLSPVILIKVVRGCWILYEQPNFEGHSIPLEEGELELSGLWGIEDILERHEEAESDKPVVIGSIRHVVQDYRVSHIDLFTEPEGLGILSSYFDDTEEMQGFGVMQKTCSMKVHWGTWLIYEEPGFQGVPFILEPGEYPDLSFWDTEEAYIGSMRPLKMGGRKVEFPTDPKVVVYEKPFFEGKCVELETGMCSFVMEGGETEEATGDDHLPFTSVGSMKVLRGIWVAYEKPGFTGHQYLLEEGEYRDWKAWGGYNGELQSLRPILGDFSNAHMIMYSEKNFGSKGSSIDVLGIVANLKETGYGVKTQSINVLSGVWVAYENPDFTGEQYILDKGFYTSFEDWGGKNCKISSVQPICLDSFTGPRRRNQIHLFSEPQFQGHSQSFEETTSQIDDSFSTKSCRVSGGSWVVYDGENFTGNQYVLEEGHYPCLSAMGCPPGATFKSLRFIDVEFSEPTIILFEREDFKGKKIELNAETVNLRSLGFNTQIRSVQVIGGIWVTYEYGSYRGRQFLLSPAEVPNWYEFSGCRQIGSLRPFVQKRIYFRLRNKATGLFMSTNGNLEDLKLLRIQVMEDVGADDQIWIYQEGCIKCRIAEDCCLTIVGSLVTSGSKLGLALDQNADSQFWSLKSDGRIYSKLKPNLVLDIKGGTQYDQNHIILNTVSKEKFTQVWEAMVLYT

Compound: Cc1cc(ccc1-c1ccccc1)C(=O)N1CCCN(CC1)C(=O)CCl [compound 10]
Assay: probe-labelled cysteine peptide fold change vs DMSO (competition) (log2 fold change); higher = less target engagement (more negative = stronger competition)
Settings: THP-1, incubation time: 4 h
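Note: competitive profiling in live THP-1 cells: cysteine peptides tagged with an iodoacetamide desthiobiotin (IA-DTB) probe, intensity after compound treatment relative to DMSO-treated cells.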

## CPNE3_O75131_31_SDPLCVLFLNTSGQQWYEVER (UniProt O75131)
10 µM
  probe-labelled cysteine peptide fold change: 0.353
50 µM
  probe-labelled cysteine peptide fold change: 0.253

## CPSF3_Q9UKF6_655_TVECEEGSEDDESLREMVELAAQR (UniProt Q9UKF6)
10 µM
  probe-labelled cysteine peptide fold change: 0.0335
50 µM
  probe-labelled cysteine peptide fold change: 0.103

## CSDE1_O75534_42_LLTSYGFIQCSER (UniProt O75534)
10 µM
  probe-labelled cysteine peptide fold change: 0.0219
50 µM
  probe-labelled cysteine peptide fold change: -0.185

## CORO7_P57737_75_VAHLGCHSDLVTDLDFSPFDDFLLATGSADR (UniProt P57737)
10 µM
  probe-labelled cysteine peptide fold change: 0.0991
50 µM
  probe-labelled cysteine peptide fold change: 0.122

## CSK_P41240_299_FSLDVCEAMEYLEGNNFVHR (UniProt P41240)
10 µM
  probe-labelled cysteine peptide fold change: 0.105
50 µM
  probe-labelled cysteine peptide fold change: 0.216

## CRYZ_Q08257_45_VHACGVNPVETYIR (UniProt Q08257)
10 µM
  probe-labelled cysteine peptide fold change: 0.0503
50 µM
  probe-labelled cysteine peptide fold change: -0.01

## CPT1A_P50416_608_SCTTESCDFVR (UniProt P50416)
10 µM
  probe-labelled cysteine peptide fold change: 0.331
50 µM
  probe-labelled cysteine peptide fold change: 0.219

## CORO1B_Q9BR76_192+195_LDSLHPDLIYNVSWNHNGSLFCSACK (UniProt Q9BR76)
10 µM
  probe-labelled cysteine peptide fold change: 0.106
50 µM
  probe-labelled cysteine peptide fold change: -0.3

## CPPED1_Q9BRF8_88_FFVLCGDLIHAMPGKPWR (UniProt Q9BRF8)
10 µM
  probe-labelled cysteine peptide fold change: -0.0653
50 µM
  probe-labelled cysteine peptide fold change: -0.191

## CTNNB1_P35222_520_NLALCPANHAPLREQGAIPR (UniProt P35222)
10 µM
  probe-labelled cysteine peptide fold change: -0.303
50 µM
  probe-labelled cysteine peptide fold change: 0.506

## CSDE1_O75534_106_MNGQVVCAVPHNLESK (UniProt O75534)
10 µM
  probe-labelled cysteine peptide fold change: -0.186
50 µM
  probe-labelled cysteine peptide fold change: 0.0557

## CRYBG1_Q9Y4K1_1404_ISSVQPICLDSFTGPR (UniProt Q9Y4K1)
10 µM
  probe-labelled cysteine peptide fold change: 0.198
50 µM
  probe-labelled cysteine peptide fold change: 0.134

## CPSF4_O95639_82_KGDQCEFLHEYDMTK (UniProt O95639)
10 µM
  probe-labelled cysteine peptide fold change: -0.24
50 µM
  probe-labelled cysteine peptide fold change: -0.283

## CPSF3_Q9UKF6_223_FCNTVHDIVNR (UniProt Q9UKF6)
10 µM
  probe-labelled cysteine peptide fold change: -0.0564
50 µM
  probe-labelled cysteine peptide fold change: -0.0286
